From article doi:10.1101/2021.12.10.472131 (bioRxiv, 2021)

Legend:
Assay in all cases: supernatant depletion assay
[1] = biological target: T1, Par-3 PDZ1-APM (residues 309-987) (UniProt O96782)
T1 sequence: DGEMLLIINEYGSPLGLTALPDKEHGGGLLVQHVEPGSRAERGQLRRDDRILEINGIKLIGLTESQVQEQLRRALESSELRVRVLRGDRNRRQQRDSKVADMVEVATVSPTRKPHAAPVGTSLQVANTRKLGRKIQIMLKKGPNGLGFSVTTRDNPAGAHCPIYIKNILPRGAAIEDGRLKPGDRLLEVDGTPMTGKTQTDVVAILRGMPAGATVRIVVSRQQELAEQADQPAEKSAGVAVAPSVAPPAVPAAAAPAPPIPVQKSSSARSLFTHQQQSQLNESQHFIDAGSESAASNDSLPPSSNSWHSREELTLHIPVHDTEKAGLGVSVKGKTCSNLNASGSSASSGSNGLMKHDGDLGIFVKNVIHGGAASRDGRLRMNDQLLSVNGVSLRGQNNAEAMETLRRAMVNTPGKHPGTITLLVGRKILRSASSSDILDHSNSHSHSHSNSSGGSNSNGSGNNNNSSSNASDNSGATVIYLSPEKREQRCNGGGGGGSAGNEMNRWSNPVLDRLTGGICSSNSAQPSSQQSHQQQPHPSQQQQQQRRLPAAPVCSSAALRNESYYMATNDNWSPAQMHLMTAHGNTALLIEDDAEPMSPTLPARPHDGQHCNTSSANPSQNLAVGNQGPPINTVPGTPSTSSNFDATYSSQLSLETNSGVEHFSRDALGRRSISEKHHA

Par-3 BR-PDZ2-3 = biological target: Par-3 BR-PDZ2-3
Par-3 PDZ2-3 = biological target: Par-3 PDZ2-3
Par-3 PDZ1-2 = biological target: Par-3 PDZ1-2

For Par complex lacking the Par-6 PBM, the binding [1] was “binds”.

B1: his aPKC kinase domain-PBM (residues 259-606) (domain or fragment, UniProt A1Z9X0 259-606, looked up)
chain: YSLNDFELIRVIGRGSYAKVLMVELRRTRRIYAMKVIKKALVTDDEDIDWVQTEKHVFETASNHPFLVGLHSCFQTPSRLFFVIEFVRGGDLMYHMQRQRRLPEEHARFYAAEISLALNFLHEKGIIYRDLKLDNVLLDHEGHIKLTDYGMCKEGIRPGDTTSTFCGTPNYIAPEILRGEDYGFSVDWWALGVLLYEMLAGRSPFDLAGASENPDQNTEDYLFQVILEKTIRIPRSLSVRAASVLKGFLNKNPADRLGCHRESAFMDIVSHPFFKNMDWELLERKQVTPPFKPRLDSDRDLANFPPEFTGEAVQLTPDDDHVIDNIDQSEFEGFEYVNPLLMSLEDCV
For B1, the binding (Par-3 BR-PDZ2-3) was “binds”, the binding (Par-3 PDZ2-3) was “binds” and the binding (Par-3 PDZ1-2) was “binds”.

These are yes or no findings as the source states them, for the method shown. Binding can be weak; no strength is given. For some of these results: Where a sequence is shown, tags or fusion partners need not be part of it.
